Test results: PubChem BioAssay AID2685 (National Center for Advancing Translational Sciences (NCATS), 2010)
Values joined by “and” are separate entries in the source; they are usually repeats but may differ in a detail not shown here. Equal values may be shown once. This is one part of the list. Shown are side measurements of this screen, not its main read-out; they come without a call. Most of these compounds were active or inconclusive in the main read-out, so they are no random draw. The note in brackets gives the kind of curve behind each potency; many fits are weak.

Test: qHTS Assay for Lipid Storage Modulators in Drosophila S3 Cells;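 as to cell number change: cells counted by Cell Tracker Red CMTPX staining in the red channel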
Conditions: BODIPY lipid droplet fluorescence, 18-24 h; for cell number change: measured here: cell count max response, cells fed with added oleic acid
Summary of the method: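 Drosophila S3 cells got compounds at several concentrations plus oleic acid (400 uM solution). Laser-scanning cytometry with 488 nm excitation read lipid droplets at 500-530 nm and cells at 575-640 nm. Percent activity was relative to 20 uM Triacsin C.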

[1] = measured here: cell number channel AC50, cells fed with added oleic acid
[2] = measured here: lipid fluorescence (Fed channel) AC50, cells fed with added oleic acid

Row | Structure (SMILES) | cell number change | AC50 [1] | AC50 [2]
1 | COc1ccc(N2CC(C(=O)N/N=C/c3c[nH]c4ccccc34)CC2=O)cc1 (stereo not given) | -32.5% | 0.00461 µM [falling, full curve, poor fit] | 29.1 µM [falling, single point]
2 | CC1CCCC(C)N1c1nnc(NC(=O)c2cc(-c3ccc(Br)cc3)on2)s1 (stereo not given) | 5.41% | – | –
3 | Cc1ccc(NS(=O)(=O)c2ccc3c(c2)NC(=O)CO3)cc1C | -18.3% | 0.517 µM [falling, full curve, poor fit] | –
4 | O=C(COc1ccccc1Cl)Nc1ccc2c(c1)C(=O)NC2=O | 7.57% | – | 29.1 µM [rising, single point]
5 | COC(=O)[C@H](C)NC(=O)Nc1cc(OC)ccc1OC | -95.1% | 25.9 µM [falling, partial curve, poor fit] | 20.6 µM [falling, partial curve]
6 | CCN(CC)S(=O)(=O)c1ccc(-c2nnc(SCC(=O)Nc3ccc4c(c3)OCO4)o2)cc1 | 6.37% | – | 1.3 µM [rising, partial curve]
7 | O=c1ccc2cc3c4c(c2o1)CCCN4CCC3 | 25.9% | – | 3.26 µM [rising, partial curve, poor fit]
8 | CCc1noc(C)c1C(=O)Nc1nc2ccc(S(C)(=O)=O)cc2s1 | -38% | 32.6 µM [falling, single point] | –
9 | CCOc1ccc(N(CC(=O)Nc2c(C)cccc2C)S(=O)(=O)c2c(C)[nH]c(=O)[nH]c2=O)cc1 | -26.6% | – | 0.146 µM [falling, full curve, poor fit]
10 | COC(=O)c1ccc(OCC(O)CN2CCOCC2)cc1 (stereo not given) | -2.7% | – | 1.3 µM [rising, full curve, poor fit]
11 | COC(=O)C1=C(O)C(C(=O)OC)C(c2ccc(C)cc2)C(C#N)(C#N)C1c1ccc(C)cc1 (stereo not given) | -17.9% | – | 23.1 µM [falling, partial curve, poor fit]
12 | O=c1[nH]nc(-c2ccc(F)cc2)cc1Cc1cccs1 | 11.3% | – | 29.1 µM [rising, single point]
13 | S=C(Nc1ccc(Nc2ccccc2)cc1)Nc1ccccn1 | -52% | 0.731 µM [falling, full curve] | 25.9 µM [falling, partial curve]
14 | O=C(NCCc1cccc(Cl)c1)C1CCC(=O)N(Cc2ccc(Cl)cc2)C1 (stereo not given) | 44.6% | 29.1 µM [rising, single point] | –
15 | CCCCCn1c(N2CCN(c3cccc(Cl)c3)CC2)nc2c1c(=O)[nH]c(=O)n2C | -11.1% | – | 29.1 µM [falling, single point]
16 | COC(=O)CCCC[C@H]1SC[C@H]2NC(=O)N[C@]21O | 3.73% | – | 29.1 µM [falling, single point]
17 | CCN(CC)S(=O)(=O)c1ccc(N=NC2=C(O)CC(C)(C)CC2=O)cc1 | 1.88% | – | 7.31 µM [rising, partial curve, poor fit]
18 | Nc1cc(-c2ccc(Br)cc2)[nH]n1 | -4.28% | – | 10.3 µM [rising, partial curve]
19 | S=C(Nc1ccccc1Cl)N(Cc1cccnc1)Cc1ccco1 | – | 6.51 µM [rising, single point] | –
20 | O=C(O)C1C2C=CC(CC2)C1C(=O)O (stereo not given) | -14.2% | – | 2.06 µM [falling, partial curve, poor fit]

Row | Structure (SMILES) | cell number change | AC50 [1] | AC50 [2]
21 | CCCCNC(=S)Nc1ccc(SC(F)F)cc1 | 6.84% | – | –
22 | Cc1nc2cc(-c3ccccc3)nn2c(N)c1-c1ccccc1 | 30.9% | 0.0259 µM [rising, full curve, poor fit] | 0.0146 µM [rising, partial curve, poor fit]
23 | Cc1cccc(CNC(=O)Cn2ccc3cc(S(=O)(=O)N4CCCCCC4)ccc32)c1 | -35.7% | 5.17 µM [falling, partial curve, poor fit] | 1.46 µM [falling, partial curve]
24 | CCSc1cc(N2CCCC2)nc(-c2ccccc2)n1 | 8.93% | – | –
25 | O=C(O)c1ncc(Cl)c(Cl)c1Cl | -18.4% and -10.9% | 0.058 µM [falling, full curve, poor fit] | 820 nM [falling, full curve] and 58 nM [falling, full curve, poor fit]
26 | O=[N+]([O-])c1cccc(/C=C2\CCC(/C=N/Nc3ccc4ccccc4n3)=C2N2CCOCC2)c1 | 16.8% | – | 1.3 µM [rising, full curve, poor fit]
27 | COC(=O)c1cc2c(ccn2-c2ccc(F)cc2)n1CC(=O)N1CCN(C(=O)c2ccco2)CC1 | -25.4% | – | 0.231 µM [rising, full curve, poor fit]
28 | C=CCn1c(=O)c(C(C)=O)cn(N(C)c2ncc(C(F)(F)F)cc2Cl)c1=O | 7.73% | – | –
29 | O=C1CC(c2cccc(Br)c2)C2=C(COC2=O)N1 (stereo not given) | -39.4% | 0.164 µM [falling, full curve, poor fit] | 0.00517 µM [falling, full curve, poor fit]
30 | CN1CCN(c2ccc(S(=O)(=O)N3CCOCC3)cc2NC(=O)Cc2ccccc2F)CC1 | 16% | 0.259 µM [rising, partial curve, poor fit] | –
31 | Cc1c(N=C2Nc3cccc4cccc2c34)c(=O)n(-c2ccccc2)n1C | 26.7% | – | 0.259 µM [falling, full curve]
32 | CC1C2(C)OC(=N)C(C#N)(C(C)O2)C1(C#N)C#N (stereo not given) | – | – | 0.206 µM [rising, full curve, poor fit]
33 | Cc1cc(C)n2nc(C(=O)N3CCN(Cc4ccc5c(c4)OCO5)CC3)nc2n1 | -19.8% | – | 2.06 µM [falling, partial curve]
34 | Cc1cccc(C(=O)Nc2ccc(NC(=O)c3ccccc3)cc2)c1 | -24.1% | – | 23.1 µM [falling, single point]
35 | CCn1c2c(c(C)cc1=O)C(=O)CC(C)(C)C2 | – | 0.461 µM [falling, single point] | –
36 | CCOc1ccc(-n2c(SC)nc3c(c2=O)SCC3)cc1 | -17.7% | – | 0.206 µM [falling, full curve]
37 | Cc1cc(NC(=O)CSc2nnc3c(C)cc4cc5c(cc4n23)OCO5)no1 | -1.55% | – | –
38 | CN1CCCN(C(=O)Cc2c(Cl)cccc2Cl)c2nc3ccccc3nc21 | -14.2% | – | 1.64 µM [rising, partial curve]
39 | COc1ccc2oc(C(=O)Nc3nc(C)cs3)c(C)c2c1 | -17.5% | – | 2.59 µM [falling, full curve]
40 | COc1cccc(/C=N/NC(=O)c2nc(-c3ccccc3)cc(-c3ccccc3)n2)c1 | – | – | 13 µM [falling, partial curve]

Row | Structure (SMILES) | cell number change | AC50 [1] | AC50 [2]
41 | O=C(C/C=N\OCc1ccc([N+](=O)[O-])cc1)Nc1ccc(Cl)cc1 | 5.16% | – | 0.116 µM [falling, partial curve, poor fit]
42 | Cc1ccc(NC(=O)N2CCC(C(=O)c3ccc(F)cc3)CC2)cc1 | 12.6% | – | 6.51 µM [rising, single point]
43 | COc1cc(C(=O)NCc2cc3cc(Cl)ccc3n2C)cc(OC)c1OC | -29.4% | – | –
44 | CN(C)CC/C=C1\c2cc(F)ccc2CSc2ccccc21 | -7.16% | – | 20.6 µM [rising, single point]
45 | COc1cccc(-c2ccc(SCC(=O)N3CCOCC3)nn2)c1 | -33.3% | 1.84 µM [falling, partial curve] | 1.46 µM [falling, partial curve]
46 | CCCCCCCN(C(=O)CCl)c1cccc(C)c1 | -31.8% | 20.6 µM [falling, single point] | 20.6 µM [falling, single point]
47 | CC(=O)C1=C(O)C(=O)N(CCC(=O)O)C1c1ccccc1[N+](=O)[O-] (stereo not given) | 9.19% | – | 0.326 µM [falling, partial curve, poor fit]
48 | CCC(C)(C)NC(=O)C(c1ccc(C)cc1)N(Cc1ccco1)C(=O)CCC(=O)Nc1nccs1 (stereo not given) | -41.9% | 29.1 µM [falling, single point] | 3.66 µM [falling, single point]
49 | CCn1c(COc2ccc(C)cc2)nnc1SCC(=O)Nc1ccc2c(c1)OCCO2 | -1.49% | – | 0.13 µM [falling, full curve, poor fit]
50 | COc1ccc(CNC(=O)COC(=O)CCn2c(C)csc2=O)cc1OC | 3.19% | – | –
51 | Cc1ccc(C(=O)c2ccccc2C(=O)O)cc1C | – | 0.58 µM [falling, single point] | –
52 | c1ccc(C2Oc3ccccc3C3CC(c4cccs4)=NN32)cc1 (stereo not given) | -11.8% | – | 36.6 µM [falling, partial curve, poor fit]
53 | O=C(COc1ccccc1)N1CCN=C1SCc1cccnc1 | -1.19% | 2.06 µM [falling, partial curve] | –
54 | COc1ccc(S(=O)(=O)Nc2ccc3oc(C)c(C(C)=O)c3c2)cc1 | 5.94% | – | 2.06 µM [rising, partial curve]
55 | COc1ccc(C)cc1NC(=O)c1ccc(-c2ccc(C(C)=O)cc2)o1 | 44.8% | 0.651 µM [rising, full curve] | 4.11 µM [rising, full curve]
56 | Cc1ccc(NC(=O)N2CCN(Cc3ccc4c(c3)OCO4)CC2)cc1 | -48.5% | 20.6 µM [falling, single point] | 29.1 µM [falling, single point]
57 | Cc1cc(Br)c2c(c1)/C(=C/C(=O)c1cccs1)C(=O)N2 | -8.34% | – | 0.13 µM [rising, single point]
58 | Cc1c(C(=O)N2CCCCC2)c(S(=O)(=O)NCc2ccc(Cl)cc2)c(C)n1C | 8.56% | – | –

13 structures out of the list, sorted by number of heavy atoms, high to low.
Row | Structure (SMILES) | cell number change | AC50 [1] | AC50 [2]
27 | COC(=O)c1cc2c(ccn2-c2ccc(F)cc2)n1CC(=O)N1CCN(C(=O)c2ccco2)CC1 | -25.4% | – | 0.231 µM [rising, full curve, poor fit]
9 | CCOc1ccc(N(CC(=O)Nc2c(C)cccc2C)S(=O)(=O)c2c(C)[nH]c(=O)[nH]c2=O)cc1 | -26.6% | – | 0.146 µM [falling, full curve, poor fit]
30 | CN1CCN(c2ccc(S(=O)(=O)N3CCOCC3)cc2NC(=O)Cc2ccccc2F)CC1 | 16% | 0.259 µM [rising, partial curve, poor fit] | –
23 | Cc1cccc(CNC(=O)Cn2ccc3cc(S(=O)(=O)N4CCCCCC4)ccc32)c1 | -35.7% | 5.17 µM [falling, partial curve, poor fit] | 1.46 µM [falling, partial curve]
33 | Cc1cc(C)n2nc(C(=O)N3CCN(Cc4ccc5c(c4)OCO5)CC3)nc2n1 | -19.8% | – | 2.06 µM [falling, partial curve]
37 | Cc1cc(NC(=O)CSc2nnc3c(C)cc4cc5c(cc4n23)OCO5)no1 | -1.55% | – | –
43 | COc1cc(C(=O)NCc2cc3cc(Cl)ccc3n2C)cc(OC)c1OC | -29.4% | – | –
34 | Cc1cccc(C(=O)Nc2ccc(NC(=O)c3ccccc3)cc2)c1 | -24.1% | – | 23.1 µM [falling, single point]
4 | O=C(COc1ccccc1Cl)Nc1ccc2c(c1)C(=O)NC2=O | 7.57% | – | 29.1 µM [rising, single point]
44 | CN(C)CC/C=C1\c2cc(F)ccc2CSc2ccccc21 | -7.16% | – | 20.6 µM [rising, single point]
36 | CCOc1ccc(-n2c(SC)nc3c(c2=O)SCC3)cc1 | -17.7% | – | 0.206 µM [falling, full curve]
24 | CCSc1cc(N2CCCC2)nc(-c2ccccc2)n1 | 8.93% | – | –
32 | CC1C2(C)OC(=N)C(C#N)(C(C)O2)C1(C#N)C#N (stereo not given) | – | – | 0.206 µM [rising, full curve, poor fit]
